In patent US6890537B2 (The Regents of the University of California, priority 1999, dated 2005):

Test: general procedure: Fmoc solid-phase peptide synthesis in flow; PEG-PS resin; HATU/DIEA; cysteine as preformed pentafluorophenyl ester
Conditions: cyclisation step, on acyclic oxidized precursor, hydrochloride salt

Substance: Gly-Phe-Cys-Arg-Cys-Leu-Cys-Arg-Arg-Gly-Val-Cys-Arg-Cys-Ile-Cys-Thr-Arg.
- cyclisation yield: 56.6%
